No constants are given. Whether binding was seen depends on the method and setting. Some entries that bind do so weakly or less than the wild type.

Chains of the proteins cited; added tags and fusions are not shown.
UniProt Q9H081: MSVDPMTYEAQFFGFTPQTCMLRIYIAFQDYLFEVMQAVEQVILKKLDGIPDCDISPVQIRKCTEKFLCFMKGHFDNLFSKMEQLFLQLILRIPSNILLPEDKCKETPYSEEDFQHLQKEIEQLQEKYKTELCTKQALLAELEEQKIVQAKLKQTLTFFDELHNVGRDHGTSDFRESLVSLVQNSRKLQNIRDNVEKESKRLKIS

The values that follow come from publication PMC11189300.

The target in assay [1] is T1, DSN1 (subunit of Mis12C in the KMN structure) (human) (UniProt Q9H410).
T1 sequence: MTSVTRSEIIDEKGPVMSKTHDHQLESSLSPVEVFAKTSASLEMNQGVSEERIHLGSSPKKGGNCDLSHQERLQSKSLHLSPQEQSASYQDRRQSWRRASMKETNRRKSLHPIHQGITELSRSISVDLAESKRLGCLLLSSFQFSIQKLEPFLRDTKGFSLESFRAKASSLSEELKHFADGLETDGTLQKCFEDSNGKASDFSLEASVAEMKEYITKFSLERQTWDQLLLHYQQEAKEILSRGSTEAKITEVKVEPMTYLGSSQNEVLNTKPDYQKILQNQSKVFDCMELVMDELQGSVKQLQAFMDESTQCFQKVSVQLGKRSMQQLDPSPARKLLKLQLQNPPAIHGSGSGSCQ
The assay is described as follows: cryo-EM structure; eight-subunit KMN (full-length Mis12C, SPC24 109–197/SPC25 92–224, ZWINT, KNL1 2,021–2,342), 0.3 mg/ml with 0.003% Triton; reconstruction at 4.5 Å; model fitted from known structures and AF2 predictions and refined against the map; both purified.

In assay [2] the target is MIS12 (subunit of Mis12C in the KMN structure) (human) (UniProt Q9H081). The assay is described as above.

B1: PMF1 (subunit of Mis12C in the KMN structure) (protein, UniProt Q6P1K2 1-205)
chain: MAEASSANLGSGCEEKRHEGSSSESVPPGTTISRVKLLDTMVDTFLQKLVAAGSYQRFTDCYKCFYQLQPAMTQQIYDKFIAQLQTSIREEISDIKEEGNLEAVLNALDKIVEEGKVRKEPAWRPSGIPEKDLHSVMAPYFLQQRDTLRRHVQKQEAENQQLADAVLAGRRQVEELQLQVQAQQQAWQALHREQRELVAVLREPE
In the case of B1, the binding result in assay [1] and in assay [2] was “binds” throughout.
